# For at least one entry, the source does not settle the construct or the ends of the probe. Negatives hold for the conditions tested. The comparison behind a weaker result is the experiment's own reference, which may not be listed here.
# Tested on: YlMhb1p (YlMhb1noMP) (Yarrowia lipolytica)
# Assay: EMSA
# Settings: EMSA: 20 mM Tris/HCl pH 7.5, 1 mM EDTA, 50 mM NaCl, 100 ug/ml BSA, 3 nM DNA, 10 min 30 C, gel 0.5x TBE 4 C, recombinant protein, protein details: GST removed with PreScission protease (pGEX-6P-2), label: 32P
Sequence,"binding result (very weak, 5' end of S8)",binding result (5' end of S6)
GGAGCAGGTATTGGTATTGCTATCG (double strand) [25 bp atp9 dsDNA],binds more weakly,
GGAGCAGGTATTGGT (double strand) [15 bp atp9 dsDNA],,no binding

# Reference: publication PMC4725248, “Yeast mitochondrial HMG proteins”
